# Assay results from the supplement of paper PMC12578635.
# ± gives the standard deviation of the averaged measurements. This is one part of the list. Single values are uncertain, as repeats are few or missing.
# System: RAW 264.7 macrophages infected with S. aureus JE2-lux
# Experiment: host macrophage viability (CellTiter-Fluor) relative to DMSO vehicle; higher = more viable host cells
# Conditions: 10 µM; treatment time 4 h; gentamicin 50 µg/ml
row,Compound,host macrophage viability
1,Cc1nc2c(ccc3nc(NC(=O)c4ccco4)sc32)s1,109 ± 10%
2,O=C(CNc1ccc(S(=O)(=O)C(F)(F)F)cc1[N+](=O)[O-])NC1CCS(=O)(=O)C1 (centres undefined),97.2%
3,CCOC(=O)c1ccc(Nc2nnc3nc(C)cc(C)n23)cc1,103%
4,CCOc1ccc(-c2nc3c(c(SCC(N)=O)n2)Cc2cccc(C)c2O3)cc1,132%
5,CCCc1cc(=O)[nH]c(SCC(=O)NCc2ccc3c(c2)OCO3)n1,106%
6,CCCc1cc(=O)[nH]c2nnc(SCC(=O)N(C)c3ccccc3)n12,93.3%
7,CCc1ccc2c(c1)c1nnc(SCC(=O)c3ccc(F)cc3)nc1n2C,103%
8,Cc1cccc(C2CCCN2C(=O)c2cc(C(C)C)on2)c1 (centres undefined),119%
9,CCc1ccc2c(c1)c1nnc(SCC(=O)Nc3nnc(C)s3)nc1n2C,124%
10,CCOCc1nnc(NC(=O)c2csc(C(C)=O)c2)s1,109%
11,CCOC(=O)c1oc2cc(O)cc(O)c2c(=O)c1-c1ccc(OC)c(OC)c1,94.9%
12,CCCCOc1ccc(-c2cc3c(N4CCN(c5ccc(OC)cc5)CC4)nccn3n2)cc1,110%
13,CCc1ccccc1-n1ccn(CC(=O)c2ccc(F)cc2)c(=O)c1=O,124%
14,Nc1c(C(=O)c2ccc(Br)cc2)sc2nc3c(cc12)CCC3,126%
15,O=S(=O)(c1cc(-c2noc(C3CC3)n2)cs1)N1CCn2c1nc1ccccc12,96.2%
16,O=C(NCc1ccccc1)C(c1ccco1)N(Cc1ccc(F)cc1)C(=O)c1ccccn1 (centres undefined),95.9%
17,COc1ccc(OC)c(-n2c(C)cn3c4c(=O)[nH]c(=O)n(C)c4nc23)c1,119%
18,CCOC(=O)c1ccc(NC(=O)CSc2nccn2-c2cccc(C)c2)cc1,119%
19,Cc1cc2ccccc2n2c(=O)n(CCNC(=O)CN3C(=O)CCC3=O)nc12,114%
20,C/C(=N/NC(=O)CSc1nc2ccccc2[nH]1)c1cccs1,116%
21,CC(=O)Nc1ccc(Nc2nc(-c3ccccc3)c3cc(C)ccc3n2)cc1,124%
22,CN1C(=O)c2cccc(NC(=O)c3cc(=O)c4ccccc4o3)c2C1=O,123%
23,COc1cccc(/C=N/NC(=O)c2n[nH]c3c2CCc2ccccc2-3)c1,107%
24,CCCc1cc(=O)[nH]c(SCC(=O)Nc2cc(C)on2)n1,95.2%
25,CSc1nc2ccc3nc(Nc4nc5cc6c(cc5s4)OCO6)sc3c2s1,110 ± 7.4%
26,Cc1ccc(N2C(=O)CC(Sc3ccccc3C(=O)O)C2=O)c(Br)c1 (centres undefined),111%
27,COc1ccc2o/c(=N\c3cccc(C#N)c3)c(C(=O)NC(C)=O)cc2c1,96.5%
28,CC(C)n1c(CN2CCN(c3ccc(F)cc3)CC2)nc2c1c(=O)n(C)c(=O)n2C,125%
29,COc1ccccc1Nc1nc(NCc2ccco2)c2ccccc2n1,120%

# Entries 13–14 of the list above:
row,Compound,host macrophage viability
13,CCc1ccccc1-n1ccn(CC(=O)c2ccc(F)cc2)c(=O)c1=O,124%
14,Nc1c(C(=O)c2ccc(Br)cc2)sc2nc3c(cc12)CCC3,126%
